Patent US10864285B2, “Methods for the diagnosis and treatment of Sjögren's syndrome” (The U.S.A., as represented by the Secretary, Department of …, priority 2012, dated 2020)

Test system: salivary glands of mice
Experiment: Salivary gland morphology (H&E, trichrome) and AQP5 immunofluorescence
Assay type: in vivo, mouse
Settings: AAV5BMP6 transduced mice vs controls

B1: BMP6: A member of the TGF-β superfamily of growth factors; added to cultured cells at 6 ng/ml (protein, UniProt P22004 375-513, looked up)
Bone morphogenetic protein 6: SASSRRRQQSRNRSTQSQDVARVSSASDYNSSELKTACRKHELYVSFQDLGWQDWIIAPKGYAANYCDGECSFPLNAHMNATNHAIVQTLVHLMNPEYVPKPCCAPTKLNAISVLYFDDNSNVILKKYRNMVVRACGCH
  Staining for the acinar specific protein AQP5: less well defined on the apical surfaces
